Results taken from patent US5776900A (SmithKline Beecham Corporation, priority 1995, dated 1998).
For some assays here: One purity is given for all peptides; the source may state it once.

experiment: general procedure: Boc solid-phase peptide synthesis; Boc-Lys(Cl-Z)-PAM resin; BHA, MBHA, chloromethyl, hydroxymethyl resins; DCC/HOBt; conditions: whole synthesis, HPLC, scale of the general procedure 0.5 g resin (0.63 mmol/g)

| Substance | final HPLC purity [%] |
| --- | --- |
| ((d)-pGlu-Glu-Asp)2 -Sub-(Lys)2 | >95 |
| (Pic-Glu-Asp)2 -Sub-(Lys)2 | >95 |
| (Pic-Ser-Asp)2 -Adp-(Lys)2 | >95 |
| (Pic-Ser-Asp)2 -Adp-(Lys-CONH2)2 | >95 |
| (pGlu-(d)-Glu-Asp)2 -Sub-(Lys)2 | >95 |
| (pGlu-Asp-Asp)2 -Sub-(Lys)2 | >95 |
| (pGlu-Glu-Asp)2 -Adp-(Tyr-Lys)2 | >95 |
| (pGlu-Glu-Glu)2 -Sub-(Lys)2 | >95 |
| (pGlu-Glu-Lys)2 -Sub-(Asp)2 | >95 |
| (pGlu-Ser-Asp)2 -Sub-(Lys)2 | >95 |

same assay, conditions: whole synthesis, scale of the general procedure 0.5 g resin (0.63 mmol/g)

| Substance | difficulty met |
| --- | --- |
| (pGlu-Glu-Asp)2 -Adp-(Tyr-Lys)2 | After 72 hours (the reaction was still not complete) |

experiment: peptide synthesis; conditions: coupling step

| Substance | step yield [%] |
| --- | --- |
| BOC Asp-(β-OBz)Sub Lys-(ε-Z)-COOBz | 73 |
| BOC-Glu-(γ-OBz) Asp-(β-OBz) Sub-Lys-(ε-Z)COOBz | 68 |
| pGlu-(γ-OBz) Glu-(β-OBz) Asp-Sub-(ε-Z) Lys-COOBz | 69 |
